According to US20230235074A1 (University of Texas, published 2023):
These are yes or no findings as the source states them, for the method shown. Some binding calls cover weakened binding; strength is not graded here.

Chains of the proteins cited; added tags and fusions are not shown. Lines headed by an entry give the natural chain unless they say otherwise; changes in a name come on top. Residues count along the entry.
UniProt Q10589, residues 49-161: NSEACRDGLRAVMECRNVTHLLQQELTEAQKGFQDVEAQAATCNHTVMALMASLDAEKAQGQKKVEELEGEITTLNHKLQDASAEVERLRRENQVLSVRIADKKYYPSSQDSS

What was measured:
[1] = biological target: BST2 long isoform (BST2-D, full length BST2, 180 amino acids) expressed on HEK293 transfectants (human) (UniProt Q10589); assay: flow cytometry, hybridoma supernatant
[2] = biological target: T1, BST2 long isoform peptide (BST2-D peptide), positions 133-156 (human); assay: ELISA, hybridoma supernatant on free peptide
T1 sequence (peptide): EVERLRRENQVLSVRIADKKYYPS

[3] = biological target: BST2 long isoform (BST2-D, full length BST2, 180 amino acids) expressed on HEK293 transfectants (human) (UniProt Q10589); assay: flow cytometry, hybridoma supernatant (FIG. 7)
[4] = biological target: BST2 long isoform (BST2-D, full length BST2, 180 amino acids) expressed on HEK293 transfectants (human) (UniProt Q10589); assay: immunocytochemistry on HEK-293 transduced cells
[5] = biological target: BST2 long isoform (BST2-D, full length BST2, 180 amino acids) expressed on HEK293 transfectants (human) (UniProt Q10589); assay: cell-based ELISA, hybridoma supernatant (FIG. 6)
[6] = biological target: BST2 long isoform (BST2-D, full length BST2, 180 amino acids) expressed on HEK293 transfectants (human) (UniProt Q10589); assay: flow cytometry, mAb 1 ug/ml on HEK293 long transfectant (FIG. 8)
[7] = biological target: BST2 long isoform (BST2-D, full length BST2, 180 amino acids) expressed on HEK293 transfectants (human) (UniProt Q10589); assay: flow cytometry, hybridoma supernatant on transduced HEK-293 cells
[8] = biological target: BST2 long isoform (BST2-D, full length BST2, 180 amino acids) expressed on HEK293 transfectants (human) (UniProt Q10589); assay: flow cytometry on HEK293-long transfectant, told in the discussion
[9] = biological target: T1, BST2 long isoform peptide (BST2-D peptide), positions 133-156 (human); assay: ELISA, hybridoma supernatant on plate-coated BST2-D peptide (1 ug/ml)
[10] = biological target: BST2 long isoform (BST2-D, full length BST2, 180 amino acids) expressed on HEK293 transfectants (human) (UniProt Q10589); assay: cell-based ELISA on dried cells, hybridoma supernatant, OD 450 nm
[11] = biological target: BST2 long isoform (BST2-D, full length BST2, 180 amino acids) expressed on HEK293 transfectants (human) (UniProt Q10589); assay: cell-based ELISA, hybridoma supernatant on dried HEK293 BST2-long cells
[12] = biological target: BST2 long isoform (BST2-D, full length BST2, 180 amino acids) expressed on HEK293 transfectants (human) (UniProt Q10589); assay: immunocytochemistry on paraffin sections of HEK293 transfectants (FIG. 18B)
[13] = biological target: Recombinant human BST2 protein (Catalog number 13370-H07H, Sino Biological) (human) (UniProt Q10589); assay: flow cytometry on MM1 cells after preincubation of the mAb with soluble BST2 protein
[14] = biological target: T1, BST2 long isoform peptide (BST2-D peptide), positions 133-156 (human); assay: ELISA dilution assay, plate coated with BST2 peptide alone, hybridoma supernatant undiluted and 1/15, 1/225, 1/3375, OD 450 nm (axis unlabelled on the sheet)

Measured: binding

B1: anti-BST2-long monoclonal antibody clone LA5 (antibody, mouse IgG1, V domains shown)
VH: EVQLQQSGAELVRSGASVNLSCTASGFNIKDYYIHWVKQRPERGLEWIGWIDPENGDTEYAPEFQGKASMTADTSSNTAYLQLSSLTSEDTAVYYCKRGDWGQGTLVTVSA
VL: DVLMTQTPLSLPVSLGDQASISCRSSQSIVHSNGNTYLEWFLQKPGQSPKLLIYKVSNRFSGVPDRFSGSGSGTDFTLKISRVEAEDLGVYYCFQGSHAPFTFGSGTELEIK
notes: Mouse hybridoma antibody; Used as hybridoma supernatant in the screening assays and as Protein A purified mAb afterwards; also called LA5 mAb; MAb LA5
binds: [1] | [2] | [3] | [4] | [5] | [6] | [7] | [8] | [9] | [10] | [11] | [12] | [13] | [14]

B2: BM7 antibody (antibody, IgG1, V domains shown)
VH: QVTLKESGPGILKPSQTLSLTCSFSGFSLSTSGVGVGWIRQPSGKGLEWLAHIWWDDDEYYNPSLKSQLTISKDTSRNQVFLKITSVDTSDTATYYCARRYYGDAMDYWGQGTAVTVSS
VL: DVVMTQTPVSLPVSLGDQASISCRSTQSLVHSNGHTYLHWYLQKPGQSPKLLIYKVSNRFSGVPDRFSGTGSGTDFTLKISRVEAEDLGVYFCSQSTHVPYTFGGGTKLEIK
notes: Tested as hybridoma supernatant
binds: [1] | [2] | [3] | [5] | [7] | [9] | [10] | [11] | [14]
